Test results: the supplement of paper PMC10849652
The list shows a part of the results.

The chains behind the UniProt entries cited, without tags or fusion partners. Where a name states a change or a piece, a line headed by the entry shows the natural chain unless it says otherwise.
UniProt Q9NW82: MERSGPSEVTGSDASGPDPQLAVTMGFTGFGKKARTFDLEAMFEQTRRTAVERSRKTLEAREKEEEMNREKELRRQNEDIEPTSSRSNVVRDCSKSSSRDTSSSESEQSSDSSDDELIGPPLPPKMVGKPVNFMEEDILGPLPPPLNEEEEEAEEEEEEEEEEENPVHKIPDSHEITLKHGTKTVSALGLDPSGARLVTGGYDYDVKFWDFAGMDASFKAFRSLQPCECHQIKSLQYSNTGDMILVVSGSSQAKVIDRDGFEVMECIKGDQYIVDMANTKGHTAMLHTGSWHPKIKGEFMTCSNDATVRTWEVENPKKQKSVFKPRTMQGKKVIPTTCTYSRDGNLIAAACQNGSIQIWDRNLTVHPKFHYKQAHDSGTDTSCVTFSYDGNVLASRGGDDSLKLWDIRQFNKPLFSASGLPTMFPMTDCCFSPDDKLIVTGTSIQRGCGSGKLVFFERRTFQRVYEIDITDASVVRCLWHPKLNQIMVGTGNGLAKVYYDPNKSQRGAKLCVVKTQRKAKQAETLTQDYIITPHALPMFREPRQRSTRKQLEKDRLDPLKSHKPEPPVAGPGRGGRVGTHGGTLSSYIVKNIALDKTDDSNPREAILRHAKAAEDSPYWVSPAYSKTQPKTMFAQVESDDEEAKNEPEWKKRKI
UniProt Q6P4I2: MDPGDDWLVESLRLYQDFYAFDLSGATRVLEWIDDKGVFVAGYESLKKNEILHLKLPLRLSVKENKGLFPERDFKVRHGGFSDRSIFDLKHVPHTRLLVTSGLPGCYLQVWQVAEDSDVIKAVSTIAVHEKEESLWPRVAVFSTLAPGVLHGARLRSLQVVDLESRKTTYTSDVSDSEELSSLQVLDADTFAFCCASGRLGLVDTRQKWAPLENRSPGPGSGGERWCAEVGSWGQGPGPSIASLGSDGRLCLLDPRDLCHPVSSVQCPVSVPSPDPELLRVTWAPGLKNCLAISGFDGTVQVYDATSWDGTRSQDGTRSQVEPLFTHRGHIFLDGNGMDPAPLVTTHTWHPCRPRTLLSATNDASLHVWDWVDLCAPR

Legend:
Test in all cases: log2 fold change, soluble protein after heating vs DMSO (PISA); higher = thermal stabilisation; K562 cells, 10 uM, 30 min; active = over 0.2 and 3.5 SD of the protein, either way, in both replicates (recomputed)
[1] = compound: COC1=CC=C(C=C1)CN2C=CC3=C2C=C(C=C3)C(=O)NO
Method in brief: (§1)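 K562 cells at 2×10^6 cells/mL were exposed to 10 μM compound for 30 min, then aliquots were heated for 3 min across 48°C-58°C, pooled, and extracted in PBS containing 0.5% NP-40 at 4°C. The supernatant after 21,000xg for 90 min was taken as soluble protein and measured by TMTpro 16plex LC-MS/MS with channel sums equalised. Thermal stability is reported relative to control samples, with values from duplicates. Fold changes are given on a log2 scale.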

filanesib = compound: CON(C)C(=O)N1N=C(c2cc(F)ccc2F)S[C@@]1(CCCN)c1ccccc1 [filanesib]
Method in brief: as §1

zotarolimus = compound: CO[C@H]1C[C@@H]2CC[C@@H](C)[C@@](O)(O2)C(=O)C(=O)N2CCCC[C@H]2C(=O)O[C@H]([C@H](C)C[C@@H]2CC[C@H](n3cnnn3)[C@H](OC)C2)CC(=O)[C@H](C)/C=C(\C)[C@@H](O)[C@@H](OC)C(=O)[C@H](C)C[C@H](C)/C=C/C=C/C=C/1C [zotarolimus]
Method in brief: as §1

idasanutlin = compound: COc1cc(C(=O)O)ccc1NC(=O)[C@@H]1N[C@@H](CC(C)(C)C)[C@](C#N)(c2ccc(Cl)cc2F)[C@H]1c1cccc(Cl)c1F [idasanutlin]
Method in brief: as §1

alisertib = compound: COc1cc(Nc2ncc3c(n2)-c2ccc(Cl)cc2C(c2c(F)cccc2OC)=NC3)ccc1C(=O)O [alisertib]
Method in brief: as §1

[2] = compound: COc1cc2nc(-c3cc(F)ccc3O)nc(N[C@@H]3CNC[C@H]3C(C)(C)O)c2cc1OC
Method in brief: as §1

gefitinib = compound: COc1cc2ncnc(Nc3ccc(F)c(Cl)c3)c2cc1OCCCN1CCOCC1 [gefitinib]
Method in brief: as §1

[3] = compound: COc1cccc2cc(-c3nc([C@H]4CC[C@H](C(=O)O)CC4)n4ncnc(N)c34)[nH]c12
Method in brief: as §1

lapatinib = compound: CS(=O)(=O)CCNCc1ccc(-c2ccc3ncnc(Nc4ccc(OCc5cccc(F)c5)c(Cl)c4)c3c2)o1 [lapatinib]
Method in brief: as §1

pictilisib = compound: CS(=O)(=O)N1CCN(Cc2cc3nc(-c4cccc5[nH]ncc45)nc(N4CCOCC4)c3s2)CC1 [pictilisib]
Method in brief: as §1

Measured: log2 fold change

WDR70 (UniProt Q9NW82)
inactive: [1] -0.014 | filanesib -0.08 | zotarolimus 0.024 | idasanutlin -0.024 | alisertib 0.007 | [2] 0.05 | gefitinib 0.014 | [3] 0.024 | lapatinib -0.011 | pictilisib 0.049

WDR73 (UniProt Q6P4I2)
inactive: [1] -0.011 | filanesib 0.033 | zotarolimus 0.002 | idasanutlin -0.03 | alisertib -0.001 | [2] 0.051 | gefitinib 0.024 | [3] 0.066 | lapatinib 0.023 | pictilisib 0.029

WDR46, A0A0G2JJL1
inactive: [1] -0.108 | filanesib 0.533 | alisertib -0.167 | [2] -0.134 | gefitinib 0.039 | [3] -0.207 | lapatinib 0.154
